# Some of the results follow. The data scatter; read single values as rough.
# Protein sequences, listed by entry. Tags and fused reporters are not part of them. Lines headed by an entry give the natural chain unless they say otherwise; changes in a name come on top. Residues count along the entry.
# UniProt Q9BW62, 78-108: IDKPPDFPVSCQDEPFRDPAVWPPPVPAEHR
# UniProt Q9Y597: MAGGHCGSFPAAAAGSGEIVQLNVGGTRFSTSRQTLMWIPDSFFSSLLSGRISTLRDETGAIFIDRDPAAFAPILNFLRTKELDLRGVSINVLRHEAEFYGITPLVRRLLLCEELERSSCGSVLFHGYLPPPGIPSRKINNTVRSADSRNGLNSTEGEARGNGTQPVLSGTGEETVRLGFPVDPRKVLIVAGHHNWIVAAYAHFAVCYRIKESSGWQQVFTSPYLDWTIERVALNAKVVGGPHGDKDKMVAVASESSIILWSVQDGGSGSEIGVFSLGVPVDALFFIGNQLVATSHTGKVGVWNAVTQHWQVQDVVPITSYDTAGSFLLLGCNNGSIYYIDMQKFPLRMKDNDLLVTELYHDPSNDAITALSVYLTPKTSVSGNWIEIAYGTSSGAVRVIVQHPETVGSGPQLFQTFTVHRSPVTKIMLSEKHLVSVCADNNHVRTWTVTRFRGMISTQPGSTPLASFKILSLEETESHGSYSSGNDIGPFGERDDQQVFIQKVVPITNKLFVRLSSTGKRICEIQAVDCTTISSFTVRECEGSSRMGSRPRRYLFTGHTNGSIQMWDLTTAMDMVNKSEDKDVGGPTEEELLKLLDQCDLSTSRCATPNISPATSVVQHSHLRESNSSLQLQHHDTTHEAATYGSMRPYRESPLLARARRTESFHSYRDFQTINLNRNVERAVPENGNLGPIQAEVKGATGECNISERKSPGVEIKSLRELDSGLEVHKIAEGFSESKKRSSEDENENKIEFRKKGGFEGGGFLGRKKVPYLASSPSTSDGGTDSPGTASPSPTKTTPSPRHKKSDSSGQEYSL
# UniProt Q9NXV2: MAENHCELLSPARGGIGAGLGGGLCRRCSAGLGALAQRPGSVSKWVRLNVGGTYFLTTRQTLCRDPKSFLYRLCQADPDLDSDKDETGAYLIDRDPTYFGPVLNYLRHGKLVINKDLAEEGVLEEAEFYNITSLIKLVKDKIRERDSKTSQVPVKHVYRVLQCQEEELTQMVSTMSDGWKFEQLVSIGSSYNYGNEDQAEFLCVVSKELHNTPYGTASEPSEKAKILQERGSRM
# UniProt Q9Y4C1: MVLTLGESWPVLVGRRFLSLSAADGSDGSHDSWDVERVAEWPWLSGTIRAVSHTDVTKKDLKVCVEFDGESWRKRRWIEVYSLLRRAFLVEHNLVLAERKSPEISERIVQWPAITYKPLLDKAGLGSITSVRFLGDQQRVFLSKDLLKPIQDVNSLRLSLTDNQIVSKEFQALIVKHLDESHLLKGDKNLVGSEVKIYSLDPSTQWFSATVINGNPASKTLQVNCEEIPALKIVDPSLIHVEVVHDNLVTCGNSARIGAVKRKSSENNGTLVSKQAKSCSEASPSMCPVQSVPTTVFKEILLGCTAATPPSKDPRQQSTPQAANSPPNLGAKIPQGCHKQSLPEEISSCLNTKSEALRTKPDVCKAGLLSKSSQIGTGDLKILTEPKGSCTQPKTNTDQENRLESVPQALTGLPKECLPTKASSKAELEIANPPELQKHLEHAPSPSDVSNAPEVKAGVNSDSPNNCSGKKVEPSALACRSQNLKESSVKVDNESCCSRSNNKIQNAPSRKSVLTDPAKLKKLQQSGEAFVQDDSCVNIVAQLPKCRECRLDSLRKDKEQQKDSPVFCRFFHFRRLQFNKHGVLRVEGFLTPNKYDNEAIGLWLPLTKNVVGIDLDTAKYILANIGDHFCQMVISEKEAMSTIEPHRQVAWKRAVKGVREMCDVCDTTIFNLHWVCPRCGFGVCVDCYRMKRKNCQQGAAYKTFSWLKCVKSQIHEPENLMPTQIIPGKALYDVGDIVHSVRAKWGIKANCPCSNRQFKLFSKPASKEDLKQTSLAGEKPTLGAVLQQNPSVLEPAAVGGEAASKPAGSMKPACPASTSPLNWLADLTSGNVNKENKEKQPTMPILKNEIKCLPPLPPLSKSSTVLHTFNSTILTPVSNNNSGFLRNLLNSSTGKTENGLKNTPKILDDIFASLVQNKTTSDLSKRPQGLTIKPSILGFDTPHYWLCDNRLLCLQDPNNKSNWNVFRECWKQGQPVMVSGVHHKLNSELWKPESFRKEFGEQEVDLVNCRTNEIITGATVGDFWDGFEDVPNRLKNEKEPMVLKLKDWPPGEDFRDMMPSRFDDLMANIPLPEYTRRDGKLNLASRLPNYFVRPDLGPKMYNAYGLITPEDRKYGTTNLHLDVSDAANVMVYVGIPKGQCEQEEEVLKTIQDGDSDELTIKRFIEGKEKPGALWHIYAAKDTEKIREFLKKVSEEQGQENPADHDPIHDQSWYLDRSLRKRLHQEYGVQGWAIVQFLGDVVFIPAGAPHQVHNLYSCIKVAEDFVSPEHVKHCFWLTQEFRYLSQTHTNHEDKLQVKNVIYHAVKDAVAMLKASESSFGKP
# UniProt Q9Y287: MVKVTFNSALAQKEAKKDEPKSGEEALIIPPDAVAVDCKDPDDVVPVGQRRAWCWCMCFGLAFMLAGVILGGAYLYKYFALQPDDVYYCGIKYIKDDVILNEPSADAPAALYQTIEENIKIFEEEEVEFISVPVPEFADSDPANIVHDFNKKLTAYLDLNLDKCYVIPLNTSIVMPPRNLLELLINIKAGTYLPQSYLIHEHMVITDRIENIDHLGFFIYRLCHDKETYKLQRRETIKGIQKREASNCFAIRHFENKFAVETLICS
# UniProt O94819: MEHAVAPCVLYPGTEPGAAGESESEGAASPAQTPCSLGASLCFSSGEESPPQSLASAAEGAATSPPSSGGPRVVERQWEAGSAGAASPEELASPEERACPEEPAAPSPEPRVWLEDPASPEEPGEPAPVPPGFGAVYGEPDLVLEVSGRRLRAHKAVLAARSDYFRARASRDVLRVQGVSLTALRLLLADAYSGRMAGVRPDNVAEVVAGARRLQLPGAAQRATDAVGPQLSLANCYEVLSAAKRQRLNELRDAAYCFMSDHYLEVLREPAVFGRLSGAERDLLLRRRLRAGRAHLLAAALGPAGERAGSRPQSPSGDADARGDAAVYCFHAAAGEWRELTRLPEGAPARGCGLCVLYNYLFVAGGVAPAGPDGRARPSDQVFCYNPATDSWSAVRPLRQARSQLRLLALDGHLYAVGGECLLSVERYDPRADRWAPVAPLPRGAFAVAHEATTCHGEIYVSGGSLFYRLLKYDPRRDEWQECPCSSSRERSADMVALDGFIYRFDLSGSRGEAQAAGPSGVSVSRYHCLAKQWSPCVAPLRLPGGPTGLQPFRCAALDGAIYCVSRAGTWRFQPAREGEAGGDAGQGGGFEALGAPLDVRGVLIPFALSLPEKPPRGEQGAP
# UniProt P52732: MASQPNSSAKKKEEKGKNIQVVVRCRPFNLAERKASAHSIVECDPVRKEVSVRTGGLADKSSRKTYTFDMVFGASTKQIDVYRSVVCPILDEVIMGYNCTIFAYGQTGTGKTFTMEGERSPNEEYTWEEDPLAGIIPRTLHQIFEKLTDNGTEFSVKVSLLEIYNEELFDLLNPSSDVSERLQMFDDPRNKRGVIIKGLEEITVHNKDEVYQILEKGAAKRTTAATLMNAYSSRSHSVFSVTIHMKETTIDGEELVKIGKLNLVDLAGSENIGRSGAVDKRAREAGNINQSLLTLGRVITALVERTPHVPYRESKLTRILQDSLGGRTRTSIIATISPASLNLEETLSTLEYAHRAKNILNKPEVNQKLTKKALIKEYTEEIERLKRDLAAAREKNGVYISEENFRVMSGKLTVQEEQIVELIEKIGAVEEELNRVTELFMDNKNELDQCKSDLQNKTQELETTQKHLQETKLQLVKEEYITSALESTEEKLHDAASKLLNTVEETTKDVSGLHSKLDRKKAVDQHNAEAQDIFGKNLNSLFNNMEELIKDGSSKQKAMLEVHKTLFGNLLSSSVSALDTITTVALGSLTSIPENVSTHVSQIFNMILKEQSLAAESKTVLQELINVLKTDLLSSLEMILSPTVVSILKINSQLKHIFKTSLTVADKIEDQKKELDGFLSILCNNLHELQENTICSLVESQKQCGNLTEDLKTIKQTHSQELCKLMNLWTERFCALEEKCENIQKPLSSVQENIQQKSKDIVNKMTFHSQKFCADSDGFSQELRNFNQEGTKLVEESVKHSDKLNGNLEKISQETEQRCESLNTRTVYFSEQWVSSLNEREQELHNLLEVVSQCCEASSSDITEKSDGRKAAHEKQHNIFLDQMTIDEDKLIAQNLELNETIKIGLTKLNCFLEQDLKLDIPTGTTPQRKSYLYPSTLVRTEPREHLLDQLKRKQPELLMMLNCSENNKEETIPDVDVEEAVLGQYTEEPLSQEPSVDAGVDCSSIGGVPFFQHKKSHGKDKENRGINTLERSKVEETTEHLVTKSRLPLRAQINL
# UniProt Q9H9V9, 86-107: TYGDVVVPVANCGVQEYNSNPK
# UniProt P24390: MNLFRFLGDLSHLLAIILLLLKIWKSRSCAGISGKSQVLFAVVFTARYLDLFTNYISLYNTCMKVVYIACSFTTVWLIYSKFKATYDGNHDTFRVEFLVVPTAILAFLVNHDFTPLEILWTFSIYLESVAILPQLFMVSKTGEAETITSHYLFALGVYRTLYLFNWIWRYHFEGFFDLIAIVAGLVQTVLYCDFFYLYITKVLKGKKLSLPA
# UniProt Q9P206: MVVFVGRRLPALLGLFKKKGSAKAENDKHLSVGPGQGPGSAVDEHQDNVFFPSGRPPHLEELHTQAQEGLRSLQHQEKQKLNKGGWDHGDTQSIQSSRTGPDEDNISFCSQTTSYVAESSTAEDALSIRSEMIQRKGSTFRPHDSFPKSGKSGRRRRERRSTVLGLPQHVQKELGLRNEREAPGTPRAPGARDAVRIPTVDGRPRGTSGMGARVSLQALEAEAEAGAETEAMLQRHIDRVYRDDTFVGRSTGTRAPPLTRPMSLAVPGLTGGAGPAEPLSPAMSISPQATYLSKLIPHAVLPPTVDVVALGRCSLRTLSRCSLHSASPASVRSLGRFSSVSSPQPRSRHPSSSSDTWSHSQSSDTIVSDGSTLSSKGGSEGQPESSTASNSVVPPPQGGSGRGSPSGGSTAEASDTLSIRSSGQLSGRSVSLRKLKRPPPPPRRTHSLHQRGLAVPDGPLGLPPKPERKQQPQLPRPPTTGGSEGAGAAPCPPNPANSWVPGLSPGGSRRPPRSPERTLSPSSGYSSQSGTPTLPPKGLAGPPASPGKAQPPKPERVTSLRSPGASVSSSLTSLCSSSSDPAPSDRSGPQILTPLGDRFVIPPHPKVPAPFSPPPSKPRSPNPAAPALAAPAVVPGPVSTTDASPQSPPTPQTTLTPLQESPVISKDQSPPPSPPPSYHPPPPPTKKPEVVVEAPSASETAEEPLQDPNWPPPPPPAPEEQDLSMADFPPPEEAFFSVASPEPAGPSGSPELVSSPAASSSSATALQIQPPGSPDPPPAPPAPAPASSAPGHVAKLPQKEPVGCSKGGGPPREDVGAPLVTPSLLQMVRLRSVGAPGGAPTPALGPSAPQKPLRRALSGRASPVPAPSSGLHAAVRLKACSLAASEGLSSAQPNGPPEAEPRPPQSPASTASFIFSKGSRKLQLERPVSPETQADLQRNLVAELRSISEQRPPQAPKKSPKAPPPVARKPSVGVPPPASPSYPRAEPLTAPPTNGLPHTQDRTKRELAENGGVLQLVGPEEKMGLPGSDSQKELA
# UniProt P14923, 87-115: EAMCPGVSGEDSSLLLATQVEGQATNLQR
# UniProt Q86Y91: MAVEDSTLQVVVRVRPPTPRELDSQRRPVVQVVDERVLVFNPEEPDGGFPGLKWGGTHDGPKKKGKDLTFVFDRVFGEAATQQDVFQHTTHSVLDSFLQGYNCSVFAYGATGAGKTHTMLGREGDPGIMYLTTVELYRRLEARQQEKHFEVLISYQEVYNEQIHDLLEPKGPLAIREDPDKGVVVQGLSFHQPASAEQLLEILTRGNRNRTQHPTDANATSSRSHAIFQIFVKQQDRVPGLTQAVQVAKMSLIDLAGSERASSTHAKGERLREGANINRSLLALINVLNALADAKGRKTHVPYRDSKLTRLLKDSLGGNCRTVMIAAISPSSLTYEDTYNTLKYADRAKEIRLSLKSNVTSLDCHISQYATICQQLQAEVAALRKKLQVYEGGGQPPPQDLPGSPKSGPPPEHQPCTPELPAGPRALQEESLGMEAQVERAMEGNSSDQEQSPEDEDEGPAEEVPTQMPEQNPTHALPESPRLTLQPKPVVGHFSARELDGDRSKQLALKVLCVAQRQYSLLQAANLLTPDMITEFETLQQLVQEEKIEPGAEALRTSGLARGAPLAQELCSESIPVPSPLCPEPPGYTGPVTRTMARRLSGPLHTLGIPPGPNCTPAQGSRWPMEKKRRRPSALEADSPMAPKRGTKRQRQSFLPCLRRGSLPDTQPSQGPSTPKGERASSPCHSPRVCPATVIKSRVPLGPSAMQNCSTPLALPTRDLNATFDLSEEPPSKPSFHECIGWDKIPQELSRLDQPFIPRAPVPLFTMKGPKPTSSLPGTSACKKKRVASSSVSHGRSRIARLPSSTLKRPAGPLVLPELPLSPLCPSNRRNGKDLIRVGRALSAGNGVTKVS
# Compound: ClCC(=O)N[C@H]1CCCc2ccccc12
# Experiment: log2 mean competition ratio of IA-DTB cysteine labelling (DMSO/compound) (log2 ratio); higher = stronger cysteine engagement by compound
# Settings: 50 µM; treatment time: 4 h; cell line lysate: HEK293T
# Procedure: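 IA-DTB competitive cysteine chemoproteomics in HEK293T RIPA lysate. Lysates were treated with compound 29 or 30 at 50 or 200 µM for 4 h, then IA-DTB (500 µM, 1 h), trypsin-digested, NeutrAvidin-enriched and analysed by diaPASEF. Competition ratio = intensity DMSO / intensity compound (n=4 treated, n=64 DMSO); binding: mean log2 CR ≥ 1 and p ≤ 0.05 plus QC filters. Target is the cysteine site.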
row,Target,log2 mean competition ratio
1,KATNAL1 C7 (UniProt Q9BW62),-0.00468
2,KCTD3 C599 (UniProt Q9Y597),-0.317
3,KCTD5 C25 (UniProt Q9NXV2),0.0316
4,KDM3A C695 (UniProt Q9Y4C1),0.0969
5,JCAD C904,0.301
6,KDM3A C390 (UniProt Q9Y4C1),0.179
7,JKAMP C181,0.196
8,KIF18A C9,-0.365
9,ITM2B C38 (UniProt Q9Y287),0.454
10,KBTBD11 C99 (UniProt O94819),-0.147

# Same assay, conditions: 200 µM; treatment time: 4 h; cell line lysate: HEK293T
row,Target,log2 mean competition ratio
1,KIF11 C704 (UniProt P52732),0.00156
2,KATNAL1 C88 (UniProt Q9BW62),0.0659
3,JMJD4 C143 (UniProt Q9H9V9),-0.142
4,KDELR1 C29 (UniProt P24390),-0.0843
5,KIF11 C450 (UniProt P52732),-0.0276
6,KIAA1522 C321 (UniProt Q9P206),-0.14
7,KIF20A C407 (UniProt O95235),0.0876
8,KIF3A C12 (UniProt Q9Y496),-0.0569
9,KIF20A C778 (UniProt O95235),0.12
10,KDM3A C1140 (UniProt Q9Y4C1),-0.00863
11,JUP C90 (UniProt P14923),-0.355
12,ITPR2 C420 (UniProt Q14571),-0.22
13,KIF18B C513 (UniProt Q86Y91),0.072
14,KIF13A C958 (UniProt Q9H1H9),0.0626
15,KIF23 C447 (UniProt Q02241),-0.159
16,KIF1A C1645,0.0436
17,JAK1 C827 (UniProt P23458),0.421
18,KIF13B C26 (UniProt Q9NQT8),-0.166

# 2 records picked at random from those above, as already listed:
row,Target,log2 mean competition ratio
11,JUP C90 (UniProt P14923),-0.355
10,KDM3A C1140 (UniProt Q9Y4C1),-0.00863
